According to publication PMC9638930, “Structural basis of flagellar motility regulation by the MogR repressor and the GmaR antirepressor in Listeria monocytogenes” (Nucleic Acids Research, 2022):
No constants are given. Whether binding was seen depends on the method and setting.

Target: MogR DBD protein (MogRD; residues 1–162) (Listeria monocytogenes) (UniProt P0DJO8)
Assay: SEC; Superdex 200 10/300 at room temperature, 20 mM Hepes pH 7.4, 150 mM NaCl, 5 mM βME; GmaRFL, MogRD and their 1:1 molar mixture; both purified

B1: MogR DBD protein (MogRD; residues 1–162) (domain or fragment, UniProt P0DJO8 1-162)
chain: MPKSEIRKLLQEIKKQVDNPGNSSTTEIKKMASEAGIDEQTAEEIYHLLTEFYQAVEEHGGIEKYMHSNISWLKIELELLSACYQIAILEDMKVLDISEMLSLNDLRIFPKTPSQLQNTYYKLKKELIQVEDIPKNKPGRKRKTQKNTKKEKTNIFGKVVPA
- binding: no binding
